Measurements as given in patent US20230073692A1 (CYTOMX THERAPEUTICS, published 2023).
Substitutions are numbered along the chain they refer to. Numbers in names are those of the source. Results are given in words; binding and its absence hold for the method and conditions named. Some entries that bind do so weakly or less than the wild type. Each block holds one binder with its values, some of them ahead of it.

Molecular target: Cyno SLC34A2 (cynomolgus monkey)
Assay: cell binding on recombinant SLC34A2 (Table 1)

binding: binds
B1: cHv83-3a23.G1(L328C)k (antibody, V domains shown)
VH: EVQLVESGGGLVQPGGSLRLSCAASGFTFSSYVMHWVRQAPGKGLEYVSGVSSSGDSTFYVDSVKGRFTISRDNSKNTLYLQMGSLRAEDMAVYYCARGGITGAPLVFDIWGQGTMVTVSS
VL: DIQMTQSPSSLSASVGDRVTITCRASQSISRFLNWYQQKPGKAPKVLIYVTSSLQSGVPSRFSGSGSGTDFTLTISSLQPEDFATYYCQQSYNTPITFGQGTRLEIKR
notes: the name says L328C in the IgG1 constant region; also called [Ag]AB-2; unconjugated antibody of OT1 / OT#1

binding: binds
B2: cHv83-1b15.G1(L328C)k (antibody, V domains shown)
VH: EVQLVESGGGWVQPGGSLRLSCAASGFTFSSHIMYWVRQAPGKGLEYVSGISSNGLSSYYVDSVKGRFTISRDNSKNLLYVHMGSLKPEDMAMYYCARGGRDRVPAVFDYWGQGTLVTVSS
VL: B1 VL with V15I, S30G, R31T, T51A, S63I, N93S, T94V
notes: the name says L328C in the IgG1 constant region; also called [Ag]AB-3; cHv83-1b15.G1k(L328C)k
